Test results: patent US4603209A, “Fluorescent indicator dyes for calcium ions” (priority 1984, dated 1986)

What follows are compounds tested on human red cells (assay: Binding to membranes: loss of supernatant fluorescence after equilibration with red cells). Conditions: red cells added to a hematocrit of 17%, 2 microM dye, 1 mM Ca^2+ or EGTA without Ca^2+.
Procedure: Binding to membranes was assessed by adding 0.3 ml portions of well-washed,packed human red cells to 1.5 ml volumes of 2 microM fura-2, fura-3, or indo-1, in media containing 145 mM NaCl, 5 mM KCl, 10 mM MOPS, 1 mM Na2 HPO4, 1 mM MgCl2, and either 1 mM EGTA or 1 mM CaCl2. After several minutes equilibration, the suspensions were centrifuged and the fluorescence of the supernatant was measured with front-face geometry. The slight loss in fluorescence from its level before equilibration with red cells was taken to be an upper limit on the dye binding to membranes since dilution by residual extracellular water in the packed red cells or inner filter effects from traces of leaked hemoglobin would also have tended to depress the fluorescence.
Red cells were used as model membranes to test binding because they are easy to add and remove. Red cells added to a hematocrit of 17% in a solution of fura-2, fura-3, or indo-1, then centrifuged out, decreased the fluorescence of the supernatant by less than 5%. This small drop in fluorescence could have been just dilution by the small unavoidable amount of extracellular fluid added with the packed cells. Even if it were attributed entirely to binding, the amount of dye bound to a membrane would be less than that contained in a layer 0.2 microns thick of adjacent aqueous solution. Such negligible binding was found whether the medium contained 1 mM Ca^2+ or EGTA without Ca^2+.

Decrease of fluorescence of the supernatant (upper limit of dye binding to membranes), less than 5%:
Cc1ccc(N(CC(=O)O)CC(=O)O)c(OCCOc2cc3cc(-c4ncc(C(=O)O)o4)oc3cc2N(CC(=O)O)CC(=O)O)c1 [fura-2, 1-(2-(5'-carboxyoxazol-2'-yl)-6-aminobenzofuran-5-oxy)-2-(2'-amino-5'-methylphenoxy)ethane-N,N,N',N'-tetraacetic acid]
Cc1ccc(N(CC(=O)O)CC(=O)O)c(OCCOc2cc3cc(-c4ccc(C#N)cc4)oc3cc2N(CC(=O)O)CC(=O)O)c1 [fura-3, 1-(2-(4-cyanophenyl)-6-aminobenzofuran-5-oxy)-2-(2'-amino-5'-methylphenoxy)ethane-N,N,N',N'-tetraacetic acid]
Cc1ccc(N(CC(=O)O)CC(=O)O)c(OCCOc2cc(-c3cc4ccc(C(=O)O)cc4[nH]3)ccc2N(CC(=O)O)CC(=O)O)c1 [indo-1, 1-(2-amino-5-[6-carboxyindolyl-2]-phenoxy)-2-(2'-amino-5'-methylphenoxy)ethane-N,N,N',N'-tetraacetic acid]
